Earlier results as cited in US6172079A, “5-substituted-3-oxadiazolyl-1,6-naphthyridin-2(1H)-one derivatives” (Dainippon Pharmaceutical Co., Ltd., priority 1997, dated 2001).

Test system: GABAA receptor
Conditions: background statement; cited from earlier work

CN1C(=O)CN=C(c2ccccc2)c2cc(Cl)ccc21 [diazepam]
uptake of Cl ion into cells: decreased
